Experimental data published in patent publication US20250002463A1, “NEW SALT FORMS OF AMILORIDE AND ITS DERIVATIVES FOR PHARMACEUTICAL USE” (PSOMRI Holding AB, priority 2021, published 2025).
Where a name gives a salt, the structure may show the parent alone. For at least one compound, name, drawing or mass did not settle the structure.

Assay: Polymorphic landscape by thermocycling of amorphous salt in 15 solvents
Assay type: physicochemical
Conditions: for polymorphs found: Example 3, thermocycling from amorphous salt, 15 solvents; for HT-XRPD Vac.: vacuum-dried solid; for HT-XRPD Vac. (AAC): vacuum-dried solid after AAC 48 h; for HT-XRPD Evap.: evaporated liquid; for HT-XRPD Evap. (AAC): evaporated liquid after AAC 48 h
[1] = thermocycling in Acetone/water (95/5% v/v)
[2] = thermocycling in EtOH/water (95/5% v/v)
[3] = thermocycling in IPA/water (95/5% v/v)

## NC(=NCc1ccccc1)NC(=O)c1nc(Cl)c(N)nc1N [Benzamil TFA salt]
  polymorphs found: polymorphic
Listed as TFA salt
  polymorphs found: two forms
Thermocycling in 1,4-Dioxane
  HT-XRPD Vac.: TFA1
  HT-XRPD Vac. (AAC): TFA1
Thermocycling in ACN
  HT-XRPD Vac.: TFA1
  HT-XRPD Vac. (AAC): TFA1
Thermocycling in Acetone
  HT-XRPD Vac.: TFA1
  HT-XRPD Vac. (AAC): TFA1
[1]
  HT-XRPD Evap.: TFA1
  HT-XRPD Evap. (AAC): TFA1
  HT-XRPD Vac.: TFA1
  HT-XRPD Vac. (AAC): TFA1
Thermocycling in DME
  HT-XRPD Vac.: TFA1
  HT-XRPD Vac. (AAC): TFA1
Thermocycling in EtOAc
  HT-XRPD Vac.: TFA1
  HT-XRPD Vac. (AAC): TFA1
Thermocycling in EtOH
  HT-XRPD Evap.: TFA1
  HT-XRPD Evap. (AAC): TFA1
  HT-XRPD Vac.: TFA1
  HT-XRPD Vac. (AAC): TFA1
[2]
  HT-XRPD Evap.: TFA1
  HT-XRPD Evap. (AAC): TFA1
  HT-XRPD Vac.: TFA1
  HT-XRPD Vac. (AAC): TFA1
Thermocycling in IPA
  HT-XRPD Vac.: TFA1
  HT-XRPD Vac. (AAC): TFA1
[3]
  HT-XRPD Vac.: TFA1
  HT-XRPD Vac. (AAC): TFA1
Thermocycling in MEK
  HT-XRPD Vac.: TFA1
  HT-XRPD Vac. (AAC): TFA1
Thermocycling in MeOH
  HT-XRPD Vac.: TFA1 + TFA2
  HT-XRPD Vac. (AAC): TFA1 + TFA2
Thermocycling in TBME
  HT-XRPD Vac.: TFA1
  HT-XRPD Vac. (AAC): TFA1
Thermocycling in THF
  HT-XRPD Vac.: TFA1
  HT-XRPD Vac. (AAC): TFA1
Thermocycling in Water
  HT-XRPD Vac.: TFA2
  HT-XRPD Vac. (AAC): TFA2
